The text below walks through data of the supplement of paper PMC7238544.

The subject of assay [1] is hAMSC donor 1. Description: Hoechst total cell count ratio vs vehicle control; higher = more cells (less toxicity).
Assay [2] has as its system hAMSC donor 2. The description is as above.
In assay [3] the test system is hAMSC donor 1. Description: transgenic luciferase activity (RLU/mg protein) fold change vs vehicle control (ratio); higher = more transgene expression.
The subject of assay [4] is hAMSC donor 2. The assay is described as above.
Assay [5] concerns hAMSC donor 1. Description: transfection efficiency (EGFP+ cells / Hoechst count) fold change vs vehicle control (ratio); hAMSC are human adipose-derived mesenchymal stem cells given an EGFP-luciferase plasmid by lipofection; higher = enhanced transfection.
The test system of assay [6] is hAMSC donor 2. The assay is described as above.
Setting [7] is: priming compound concentration 0.2 µM.
[8] abbreviates: priming compound concentration 1.7 µM.
Where [9] appears, read: priming compound concentration 13 µM.

Each structure is given as a SMILES string. Counter-ions that a name gives are not always drawn. ± gives the standard deviation of the averaged measurements. Some of the results follow. The data scatter; read single values as rough.

Take `C[C@](N)(Cc1ccc(O)c(O)c1)C(=O)O` [Methyldopa]: the “Hoechst total cell count ratio” value in assay [1] (setting [7]) was 1.16 ± 0.14; in assay [1] (setting [8]) it was 1.19 ± 0.068; in assay [1] (setting [9]), 1.16 ± 0.37; in assay [2] (setting [7]), 0.987 ± 0.12; in assay [2] (setting [8]), 0.621 ± 0.14; in assay [2] (setting [9]), 1.01 ± 0.26. The transgenic luciferase activity in assay [3] (setting [7]) came to 1.35 ± 0.54; in assay [3] (setting [8]), 0.71 ± 0.12; in assay [4] (setting [8]) it was 0.402 ± 0.053; in assay [4] (setting [9]), 1.6 ± 0.45. Moreover, the transfection efficiency in assay [5] (setting [7]) worked out at 1.21 ± 0.15; in assay [5] (setting [8]), 1.05 ± 0.14; in assay [5] (setting [9]), 0.969 ± 0.043; in assay [6] (setting [7]) it was 0.955 ± 0.27; in assay [6] (setting [8]), 1.15 ± 0.085; in assay [6] (setting [9]), 1.38 ± 0.14.

Turning to `CN(C)CCOC(c1ccc(Cl)cc1)c1ccccn1` (configuration not stated) [Carbinoxamine maleate], the “Hoechst total cell count ratio” value in assay [1] (setting [7]) turned out to be 1.12 ± 0.17; in assay [1] (setting [8]), 1.55 ± 0.16; in assay [1] (setting [9]), 1.42 ± 0.28; in assay [2] (setting [7]), 1.15 ± 0.038; in assay [2] (setting [8]), 0.888 ± 0.14; in assay [2] (setting [9]) it was 1.06 ± 0.098. Further, the transgenic luciferase activity in assay [3] (setting [7]) worked out at 0.624 ± 0.24; in assay [3] (setting [8]), 1.27 ± 0.1; in assay [4] (setting [8]), 0.511 ± 0.081; in assay [4] (setting [9]), 0.482 ± 0.14. Also, the transfection efficiency amounted to 1.08 ± 0.15 in assay [5] (setting [7]); 1.12 ± 0.2 in assay [5] (setting [8]); 1.06 ± 0.22 in assay [5] (setting [9]); 0.864 ± 0.046 in assay [6] (setting [7]); 1.4 ± 0.06 in assay [6] (setting [8]); 1.2 ± 0.12 in assay [6] (setting [9]).

Turning to `C[C@]12C=CC(=O)C=C1CC[C@@H]1[C@@H]2[C@@H](O)C[C@@]2(C)[C@H]1CC[C@]2(O)C(=O)CO` [Prednisolone], the “Hoechst total cell count ratio” value amounted to 1.34 ± 0.41 in assay [1] (setting [7]); 1.27 ± 0.14 in assay [1] (setting [8]); 1.08 ± 0.077 in assay [1] (setting [9]); 1.05 ± 0.1 in assay [2] (setting [7]); 1.87 ± 0.44 in assay [2] (setting [8]); 2.38 ± 0.56 in assay [2] (setting [9]). In addition, the transgenic luciferase activity in assay [3] (setting [8]) worked out at 3.89 ± 4; in assay [3] (setting [9]), 6.49 ± 0.95; in assay [4] (setting [8]), 2.72 ± 0.27; in assay [4] (setting [9]), 2.57 ± 0.8. In addition, the transfection efficiency came to 1.46 ± 0.56 in assay [5] (setting [7]); 1.35 ± 0.59 in assay [5] (setting [8]); 2 ± 0.17 in assay [5] (setting [9]); 1.31 ± 0.11 in assay [6] (setting [7]); 1.56 ± 0.27 in assay [6] (setting [8]); 1.17 ± 0.27 in assay [6] (setting [9]).

Take `Cn1c(=O)c2nc[nH]c2n(C)c1=O` [Theophylline]: the “Hoechst total cell count ratio” value in assay [1] (setting [7]) was determined as 1.17 ± 0.048; in assay [1] (setting [8]), 1.55 ± 0.22; in assay [1] (setting [9]) it was 1.35 ± 0.43; in assay [2] (setting [7]), 1.04 ± 0.22; in assay [2] (setting [8]), 1 ± 0.27; in assay [2] (setting [9]) it was 0.926 ± 0.19. Moreover, the transgenic luciferase activity in assay [3] (setting [7]) came out at 0.541 ± 0.021; in assay [3] (setting [8]) it was 0.507 ± 0.12; in assay [4] (setting [8]), 0.854 ± 0.11; in assay [4] (setting [9]) it was 0.408 ± 0.27. The transfection efficiency in assay [5] (setting [7]) was 1.19 ± 0.047; in assay [5] (setting [8]) it was 1.01 ± 0.16; in assay [5] (setting [9]) it was 1.06 ± 0.25; in assay [6] (setting [7]), 1.4 ± 0.53; in assay [6] (setting [8]), 1.16 ± 0.32; in assay [6] (setting [9]), 0.877 ± 0.014.

With `Cn1ccnc1S` [Methimazole], the “Hoechst total cell count ratio” value is 1.19 ± 0.28 in assay [1] (setting [7]); 1.64 ± 0.17 in assay [1] (setting [8]); 1.31 ± 0.32 in assay [1] (setting [9]); 1.14 ± 0.025 in assay [2] (setting [7]); 0.827 ± 0.034 in assay [2] (setting [8]); 0.842 ± 0.22 in assay [2] (setting [9]). For the same compound, the transgenic luciferase activity is 0.473 ± 0.24 in assay [3] (setting [7]), 1.35 ± 0.15 in assay [3] (setting [8]), 0.649 ± 0.23 in assay [4] (setting [8]) and 0.442 ± 0.085 in assay [4] (setting [9]). In addition, the transfection efficiency in assay [5] (setting [7]) is 1.01 ± 0.32; in assay [5] (setting [8]) it was 0.931 ± 0.15; in assay [5] (setting [9]) it was 0.984 ± 0.18; in assay [6] (setting [7]), 0.877 ± 0.032; in assay [6] (setting [8]), 1.3 ± 0.19; in assay [6] (setting [9]) it was 1.18 ± 0.11.

Turning to `CC(=O)OCC[N+](C)(C)C` [Acetylcholine chloride], the “Hoechst total cell count ratio” value is 1.273 ± 0.011 in assay [1] (setting [7]); 1.09 ± 0.16 in assay [1] (setting [8]); 1.05 ± 0.065 in assay [1] (setting [9]); 0.991 ± 0.0076 in assay [2] (setting [7]); 1.32 ± 0.32 in assay [2] (setting [8]); 1.03 ± 0.099 in assay [2] (setting [9]). Also, the transgenic luciferase activity in assay [3] (setting [7]) worked out at 0.434 ± 0.25; in assay [3] (setting [9]) it was 6.21 ± 1.6; in assay [4] (setting [7]), 0.708 ± 0.12; in assay [4] (setting [8]), 0.53 ± 0.084. Also, the transfection efficiency in assay [5] (setting [7]) came to 1.16 ± 0.17; in assay [5] (setting [8]) it was 1.06 ± 0.27; in assay [5] (setting [9]), 0.983 ± 0.17; in assay [6] (setting [7]), 1.21 ± 0.081; in assay [6] (setting [8]), 1.04 ± 0.062; in assay [6] (setting [9]) it was 1.17 ± 0.28.

Regarding `CC(C)n1c(/C=C/C(O)CC(O)CC(=O)O)c(-c2ccc(F)cc2)c2ccccc21` (configuration not stated) [Fluvastatin], the “Hoechst total cell count ratio” value amounted to 1.05 ± 0.17 in assay [1] (setting [7]); 0.807 ± 0.2 in assay [1] (setting [8]); 0.8 ± 0.11 in assay [1] (setting [9]); 0.792 ± 0.26 in assay [2] (setting [7]); 0.608 ± 0.12 in assay [2] (setting [8]); 1.08 ± 0.17 in assay [2] (setting [9]). In addition, the transgenic luciferase activity is 0.7 ± 0.53 in assay [3] (setting [8]), 0.7249 ± 0.0055 in assay [3] (setting [9]), 0.926 ± 0.087 in assay [4] (setting [8]) and 0.421 ± 0.12 in assay [4] (setting [9]). The transfection efficiency turned out to be 1.51 ± 0.35 in assay [5] (setting [7]); 2.37 ± 0.78 in assay [5] (setting [8]); 2.07 ± 0.73 in assay [5] (setting [9]); 1.11 ± 0.31 in assay [6] (setting [7]); 1.63 ± 0.15 in assay [6] (setting [8]); 1.02 ± 0.28 in assay [6] (setting [9]).
